Test results: the supplement of paper PMC8551327
Some of the results follow. Rule as the data show it: active = 1.25 or more and inactive = the rest. Most values come without repeats; read them as rough.

What follows are compounds tested on Kcc2-LUC knock-in mouse primary cortical neurons (Kcc2 promoter reporter) (assay: Kcc2 promoter-driven luciferase activity relative to vehicle control (fold of vehicle (ratio)); higher = stronger Kcc2 promoter activation (Kcc2 expression enhancer)). Settings: 100 nM; 48 h.
`COc1cc(O)c(Cc2ccccc2O)c(O)c1C(=O)CCc1ccccc1` [Uvaretin] was tested, and the “Kcc2 promoter-driven luciferase activity” value was inactive: 1.12. `COc1ccc(O)cc1` [Mequinol] was tested, and the “Kcc2 promoter-driven luciferase activity” value was active: 1.32. In the case of `COC(=O)NC1C(C)OC(OC2C/C=C(/C)C3C=CC4C(OC5CC(OC6CC(O)C(OC7CC(O)C(OC)C(C)O7)C(C)O6)C(O)C(C)O5)C(C)CC(C)C4C3(C)/C(O)=C3\C(=O)OC4(CC(C)C(CO)=CC4/C=C\2C)C3=O)CC1(C)[N+](=O)[O-]` (stereo not given), the “Kcc2 promoter-driven luciferase activity” value is reported as inactive: 0.91. `CN(C)CC1CCC/C(=C\c2ccc(OC(=O)/C=C/c3ccccc3)cc2)C1=O` (stereo not given) was tested, and the “Kcc2 promoter-driven luciferase activity” value was inactive: 0.9. `Clc1ccc(-c2c(C3=NCCCN3)nnn2-c2ccc(Cl)cc2)cc1` was tested, and the “Kcc2 promoter-driven luciferase activity” value was inactive: 0.47. `CCN(CC)CCN1C(=O)c2c(c3c4cccc(Cl)c4n(C4OC(CO)C(OC)C(O)C4O)c3c3[nH]c4c(Cl)cccc4c23)C1=O` (stereo not given) [Rebeccamycin Analog] was tested, and the “Kcc2 promoter-driven luciferase activity” value was inactive: 0.86. `Cc1cc(O)c2c(c1)C(=O)c1cc(O)cc(O)c1C2=O` [Emodin] was tested, and the “Kcc2 promoter-driven luciferase activity” value was inactive: 1.18. In the case of `COc1nc(C(Cl)(Cl)Cl)c(Cl)c(OC)c1Cl` [Penclomedine], the “Kcc2 promoter-driven luciferase activity” value is reported as inactive: 1.13. With `CC1(C)[C@@H]2CC[C@]1(C)[C@@H](O)C2` [Isoborneol] the “Kcc2 promoter-driven luciferase activity” value was active: 1.47. For `CC(C)=CC(=O)OC1C2C(C)C(=O)OC2C(O)C(C)C2C=CC(=O)C21C` (stereo not given) [Fastigillin B], the “Kcc2 promoter-driven luciferase activity” value was inactive: 0.55.
